Reference: the supplement of paper PMC8728848
The other results are listed elsewhere or left out.

Legend:
Assay in all cases: glycan array binding signal (z-score within array); higher = stronger binding
Settings in all cases: glycan notation: IUPAC condensed, linker removed
[1] = biological target: Gal3S(b1-4)[Fuc(a1-3)]Glc
Summary of the method: (§1)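 The binding signal is a Z-score computed within each array. Data were drawn from 3228 arrays in the Consortium for Functional Glycomics database, restricted to those with a known protein sequence. Scores were averaged over arrays of the same protein sequence at different concentrations or buffers, and over linkers, and negative values can be taken as non-binding.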

[2] = biological target: Gal3S(b1-4)[Fuc(a1-3)]Glc6S
Summary of the method: as §1

[3] = biological target: Gal3S(b1-4)[Fuc(a1-3)]GlcNAc
Summary of the method: as §1

[4] = biological target: Gal3S(b1-4)[Fuc(a1-3)]GlcNAc6S
Summary of the method: as §1

Gal3S4S(b1-4)GlcNAc = biological target: Gal3S4S(b1-4)GlcNAc
Summary of the method: as §1

Gal3S6S(b1-4)GlcNAc = biological target: Gal3S6S(b1-4)GlcNAc
Summary of the method: as §1

Gal3S6S(b1-4)GlcNAc6S = biological target: Gal3S6S(b1-4)GlcNAc6S
Summary of the method: as §1

Gal4S(b1-4)GlcNAc = biological target: Gal4S(b1-4)GlcNAc
Summary of the method: as §1

Gal4S6S(b1-4)GlcNAc = biological target: Gal4S6S(b1-4)GlcNAc
Summary of the method: as §1

Gal6P(b1-4)GlcNAc = biological target: Gal6P(b1-4)GlcNAc
Summary of the method: as §1

Gal6S(b1-3)GlcNAc = biological target: Gal6S(b1-3)GlcNAc
Summary of the method: as §1

Gal6S(b1-3)GlcNAc6S = biological target: Gal6S(b1-3)GlcNAc6S
Summary of the method: as §1

Gal6S(b1-4)Glc = biological target: Gal6S(b1-4)Glc
Summary of the method: as §1

Gal6S(b1-4)Glc6S = biological target: Gal6S(b1-4)Glc6S
Summary of the method: as §1

Gal6S(b1-4)GlcNAc = biological target: Gal6S(b1-4)GlcNAc
Summary of the method: as §1

Gal6S(b1-4)GlcNAc6S = biological target: Gal6S(b1-4)GlcNAc6S
Summary of the method: as §1

GalNAc(a1-3)Gal = biological target: GalNAc(a1-3)Gal
Summary of the method: as §1

GalNAc(a1-3)GalNAc = biological target: GalNAc(a1-3)GalNAc
Summary of the method: as §1

[5] = biological target: GalNAc(a1-3)GalNAc(a1-3)Gal(a1-4)Gal(b1-4)GlcNAc
Summary of the method: as §1

[6] = biological target: GalNAc(a1-3)GalNAc(b1-3)Gal(a1-4)Gal(b1-4)Glc
Summary of the method: as §1

[7] = biological target: GalNAc(a1-3)GalNAc(b1-3)Gal(a1-4)Gal(b1-4)GlcNAc
Summary of the method: as §1

GalNAc(b1-3)Gal = biological target: GalNAc(b1-3)Gal
Summary of the method: as §1

[8] = biological target: GalNAc(b1-3)Gal(a1-4)Gal(b1-4)GlcNAc
Summary of the method: as §1

[9] = biological target: GalNAc(b1-3)Gal(a1-4)Gal(b1-4)GlcNAc(b1-3)Gal(b1-4)Glc
Summary of the method: as §1

[10] = biological target: GalNAc(b1-3)Gal(a1-6)Gal(b1-4)Glc
Summary of the method: as §1

GalNAc(b1-3)GalNAc = biological target: GalNAc(b1-3)GalNAc
Summary of the method: as §1

GalNAc(b1-3)GlcNAc = biological target: GalNAc(b1-3)GlcNAc
Summary of the method: as §1

GalNAc(b1-4)Gal(b1-4)Glc = biological target: GalNAc(b1-4)Gal(b1-4)Glc
Summary of the method: as §1

GalNAc(b1-4)GlcNAc = biological target: GalNAc(b1-4)GlcNAc
Summary of the method: as §1

[11] = biological target: GalNAc(b1-4)GlcNAc(b1-2)Man
Summary of the method: as §1

[12] = biological target: GalNAc(b1-4)GlcNAc(b1-2)Man(a1-3)[GalNAc(b1-4)GlcNAc(b1-2)Man(a1-6)]Man(b1-4)GlcNAc(b1-4)GlcNAc
Summary of the method: as §1

[13] = biological target: GalNAc(b1-4)GlcNAc(b1-3)GalNAc(b1-4)GlcNAc
Summary of the method: as §1

GalNAc(b1-4)GlcNAc6S = biological target: GalNAc(b1-4)GlcNAc6S
Summary of the method: as §1

GalNAc(b1-6)GalNAc = biological target: GalNAc(b1-6)GalNAc
Summary of the method: as §1

GalNAc3S(b1-4)GlcNAc = biological target: GalNAc3S(b1-4)GlcNAc
Summary of the method: as §1

GalNAc3S(b1-4)GlcNAc3S = biological target: GalNAc3S(b1-4)GlcNAc3S
Summary of the method: as §1

[14] = biological target: GalNAc3S(b1-4)[Fuc(a1-3)]GlcNAc
Summary of the method: as §1

GalNAc4S6S(b1-4)GlcNAc = biological target: GalNAc4S6S(b1-4)GlcNAc
Summary of the method: as §1

GalNAc6S(b1-4)GlcNAc = biological target: GalNAc6S(b1-4)GlcNAc
Summary of the method: as §1

Glc(a1-4)Glc = biological target: Glc(a1-4)Glc
Summary of the method: as §1

[15] = biological target: Glc(a1-4)Glc(a1-4)Glc(a1-4)Glc
Summary of the method: as §1

Glc(a1-6)Glc(a1-6)Glc = biological target: Glc(a1-6)Glc(a1-6)Glc
Summary of the method: as §1

[16] = biological target: Glc(a1-6)Glc(a1-6)Glc(a1-6)Glc
Summary of the method: as §1

Glc(b1-4)Glc = biological target: Glc(b1-4)Glc
Summary of the method: as §1

Glc(b1-6)Glc = biological target: Glc(b1-6)Glc
Summary of the method: as §1

B1: Gal 12 (Homo sapiens), Q96DT0 (protein)
chain: MSQPSGGRAPGTRIYSWSCPTVMSPGEKLDPIPDSFILQPPVFHPVVPYVTTIFGGLHAGKMVMLQGVVPLDAHRFQVDFQCGCSLCPRPDIAFHFNPRFHTTKPHVICNTLHGGRWQREARWPHLALRRGSSFLILFLFGNEEVKVSVNGQHFLHFRYRLPLSHVDTLGIFGDILVEAVGFLNINPFVEGSREYPAGHPFLLMSPRLEVPCSHALPQGLSPGQVIIVRGLVLQEPKHFTVSLRDQAAHAPVTLRASFADRTLAWISRWGQKKLISAPFLFYPQRFFEVLLLFQEGGLKLALNGQGLGATSMNQQALEQLRELRISGSVQLYCVHS
- glycan array binding signal (z-score) [1]: 2.01
- glycan array binding signal (z-score) [2]: 3.19
- glycan array binding signal (z-score) [3]: 2.76
- glycan array binding signal (z-score) [4]: -0.166
- glycan array binding signal (z-score) (Gal3S4S(b1-4)GlcNAc): 0.103
- glycan array binding signal (z-score) (Gal3S6S(b1-4)GlcNAc): -0.659
- glycan array binding signal (z-score) (Gal3S6S(b1-4)GlcNAc6S): -0.767
- glycan array binding signal (z-score) (Gal4S(b1-4)GlcNAc): -0.015
- glycan array binding signal (z-score) (Gal4S6S(b1-4)GlcNAc): 0.647
- glycan array binding signal (z-score) (Gal6P(b1-4)GlcNAc): 0.375
- glycan array binding signal (z-score) (Gal6S(b1-3)GlcNAc): -0.369
- glycan array binding signal (z-score) (Gal6S(b1-3)GlcNAc6S): 0.846
- glycan array binding signal (z-score) (Gal6S(b1-4)Glc): -0.183
- glycan array binding signal (z-score) (Gal6S(b1-4)Glc6S): 0.851
- glycan array binding signal (z-score) (Gal6S(b1-4)GlcNAc): -0.639
- glycan array binding signal (z-score) (Gal6S(b1-4)GlcNAc6S): -0.084
- glycan array binding signal (z-score) (GalNAc(a1-3)Gal): 0.531
- glycan array binding signal (z-score) (GalNAc(a1-3)GalNAc): -0.257
- glycan array binding signal (z-score) [5]: -0.531
- glycan array binding signal (z-score) [6]: 0.43
- glycan array binding signal (z-score) [7]: -0.474
- glycan array binding signal (z-score) (GalNAc(b1-3)Gal): -0.335
- glycan array binding signal (z-score) [8]: 0.015
- glycan array binding signal (z-score) [9]: -0.621
- glycan array binding signal (z-score) [10]: -0.331
- glycan array binding signal (z-score) (GalNAc(b1-3)GalNAc): -0.264
- glycan array binding signal (z-score) (GalNAc(b1-3)GlcNAc): -1.02
- glycan array binding signal (z-score) (GalNAc(b1-4)Gal(b1-4)Glc): 0.093
- glycan array binding signal (z-score) (GalNAc(b1-4)GlcNAc): 0.685
- glycan array binding signal (z-score) [11]: -0.114
- glycan array binding signal (z-score) [12]: -0.036
- glycan array binding signal (z-score) [13]: -0.909
- glycan array binding signal (z-score) (GalNAc(b1-4)GlcNAc6S): -0.136
- glycan array binding signal (z-score) (GalNAc(b1-6)GalNAc): 0.172
- glycan array binding signal (z-score) (GalNAc3S(b1-4)GlcNAc): -1.24
- glycan array binding signal (z-score) (GalNAc3S(b1-4)GlcNAc3S): -0.326
- glycan array binding signal (z-score) [14]: -0.973
- glycan array binding signal (z-score) (GalNAc4S6S(b1-4)GlcNAc): -0.099
- glycan array binding signal (z-score) (GalNAc6S(b1-4)GlcNAc): -0.294
- glycan array binding signal (z-score) (Glc(a1-4)Glc): -0.084
- glycan array binding signal (z-score) [15]: -0.426
- glycan array binding signal (z-score) (Glc(a1-6)Glc(a1-6)Glc): 0.307
- glycan array binding signal (z-score) [16]: -0.136
- glycan array binding signal (z-score) (Glc(b1-4)Glc): -1.29
- glycan array binding signal (z-score) (Glc(b1-6)Glc): -0.375
